The results in this text go back to patent publication US20200040045.

Chains of the proteins cited; added tags and fusions are not shown. Residues count along the entry.
UniProt Q6VWJ6, 293-573: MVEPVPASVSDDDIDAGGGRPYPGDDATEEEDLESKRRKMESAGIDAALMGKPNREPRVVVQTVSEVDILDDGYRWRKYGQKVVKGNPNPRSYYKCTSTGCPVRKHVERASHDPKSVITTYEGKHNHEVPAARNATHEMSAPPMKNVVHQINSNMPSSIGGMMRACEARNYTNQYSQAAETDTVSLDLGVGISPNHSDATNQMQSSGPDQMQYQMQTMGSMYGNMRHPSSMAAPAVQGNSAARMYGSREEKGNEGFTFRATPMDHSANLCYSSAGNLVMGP

This data set has as its target SUSIBA1 (Hordeum vulgare) (UniProt Q6VWJ6). Description: EMSA. The following applies: purified recombinant protein, protein details: overexpressed in and purified from E. coli, label: 32P.

Construct, isoform or probe ends are uncertain for at least one entry. Negatives hold for the conditions tested.

On to “CTGTAAAAAAAATTTAGCCT / GACATTTTTTTTAAATCGGA [SP8a M]”, for which, where the note is “A-stretch substitution, variant of 6-SFT SP8a”, the binding result is “no binding”.

For the sequence “TTATTAAAAAAATATATACG / AATAATTTTTTTATATATGC [W-box M]”, where the note is “A-stretch substitution, variant of 6-SFT W-box”, the binding result was “no binding”.

On to “TTATTTTGACCATATATACG / AATAAAACTGGTATATATGC [6-SFT W-box]”, for which the binding result (strong binding to the W-box) is given as “binds”.
